# Patent publication US20140031432A1, “TREATMENT OF MITOCHONDRIAL DISEASES WITH VITAMIN K” (Ampere Life Sciences, Inc., priority 2010, published 2014)
# Some of these results come from one statement about several compounds together.
# What was measured:
# [1] = tested on: Human dermal fibroblasts from Friedreich's ataxia patients; test: Rescue of BSO-stressed FRDA fibroblasts (Example A); format: cell-based; conditions: FRDA fibroblasts (Coriell GM04078), 1 mM BSO, 48 h, Calcein AM viability; read-out: protection against FRDA, EC50
# Method: (§1) Test samples and solvent controls were tested for their ability to rescue FRDA fibroblasts stressed by addition of L-buthionine-(S,R)-sulfoximine (BSO), as described in Jauslin et al., Hum. Mol. Genet. 11(24):3055 (2002), Jauslin et al., FASEB J. 17:1972-4 (2003), and International Patent Application WO 2004/003565. […] This specific BSO-mediated cell death can be prevented by administration of antioxidants or molecules involved in the antioxidant pathway, such as alpha-tocopherol, selenium, or small molecule glutathione peroxidase mimetics. However, antioxidants differ in their potency, i.e. the concentration at which they are able to rescue BSO-stressed FRDA fibroblasts.
# (§2) MEM (a medium enriched in amino acids and vitamins, catalog no. 1-31F24-I) and Medium 199 (M199, catalog no. 1-21F22-I) with Earle's Balanced Salts, without phenol red, were purchased from Bioconcept. Fetal Calf Serum was obtained from PAA Laboratories. Basic fibroblast growth factor and epidermal growth factor were purchased from PeproTech. […]
# (§3) 100 μl of PBS containing 1.2 μM Calcein AM were then added to each well. […] After that time the PBS was discarded, the plate gently tapped on a paper towel and fluorescence (excitation/emission wavelengths of 485 nm and 525 nm, respectively) was read on a Gemini fluorescence reader. […]
# [2] = tested on: human dermal fibroblasts from Huntington's patients; test: Rescue of fibroblasts from Huntington's patients from oxidative stress (Example B); format: cell-based; conditions: Huntington's cells (Coriell GM 04281), screen as in Example A (BSO stress); read-out: protection against Huntington's, EC50
# Method: [The source words this procedure for another cell line and reports this cell line under the same test.] as §1, §2, §3
substance,measurement,setting,value
"2-methyl-3-[(2E)-3,7,11,15-tetramethylhexadec-2-en-1-yl]naphthoquinone",EC50,[1],< 1000 nM
same,EC50,[2],< 500 nM
